According to article PMC5880407:
These are yes or no findings as the source states them, for the method shown. Binding seen in cells or lysates may run through a third protein. Some binding calls cover weakened binding; strength is not graded here.

Protein sequences, listed by entry. Tags and fused reporters are not part of them. Lines headed by an entry give the natural chain unless they say otherwise; changes in a name come on top.
UniProt Q03018: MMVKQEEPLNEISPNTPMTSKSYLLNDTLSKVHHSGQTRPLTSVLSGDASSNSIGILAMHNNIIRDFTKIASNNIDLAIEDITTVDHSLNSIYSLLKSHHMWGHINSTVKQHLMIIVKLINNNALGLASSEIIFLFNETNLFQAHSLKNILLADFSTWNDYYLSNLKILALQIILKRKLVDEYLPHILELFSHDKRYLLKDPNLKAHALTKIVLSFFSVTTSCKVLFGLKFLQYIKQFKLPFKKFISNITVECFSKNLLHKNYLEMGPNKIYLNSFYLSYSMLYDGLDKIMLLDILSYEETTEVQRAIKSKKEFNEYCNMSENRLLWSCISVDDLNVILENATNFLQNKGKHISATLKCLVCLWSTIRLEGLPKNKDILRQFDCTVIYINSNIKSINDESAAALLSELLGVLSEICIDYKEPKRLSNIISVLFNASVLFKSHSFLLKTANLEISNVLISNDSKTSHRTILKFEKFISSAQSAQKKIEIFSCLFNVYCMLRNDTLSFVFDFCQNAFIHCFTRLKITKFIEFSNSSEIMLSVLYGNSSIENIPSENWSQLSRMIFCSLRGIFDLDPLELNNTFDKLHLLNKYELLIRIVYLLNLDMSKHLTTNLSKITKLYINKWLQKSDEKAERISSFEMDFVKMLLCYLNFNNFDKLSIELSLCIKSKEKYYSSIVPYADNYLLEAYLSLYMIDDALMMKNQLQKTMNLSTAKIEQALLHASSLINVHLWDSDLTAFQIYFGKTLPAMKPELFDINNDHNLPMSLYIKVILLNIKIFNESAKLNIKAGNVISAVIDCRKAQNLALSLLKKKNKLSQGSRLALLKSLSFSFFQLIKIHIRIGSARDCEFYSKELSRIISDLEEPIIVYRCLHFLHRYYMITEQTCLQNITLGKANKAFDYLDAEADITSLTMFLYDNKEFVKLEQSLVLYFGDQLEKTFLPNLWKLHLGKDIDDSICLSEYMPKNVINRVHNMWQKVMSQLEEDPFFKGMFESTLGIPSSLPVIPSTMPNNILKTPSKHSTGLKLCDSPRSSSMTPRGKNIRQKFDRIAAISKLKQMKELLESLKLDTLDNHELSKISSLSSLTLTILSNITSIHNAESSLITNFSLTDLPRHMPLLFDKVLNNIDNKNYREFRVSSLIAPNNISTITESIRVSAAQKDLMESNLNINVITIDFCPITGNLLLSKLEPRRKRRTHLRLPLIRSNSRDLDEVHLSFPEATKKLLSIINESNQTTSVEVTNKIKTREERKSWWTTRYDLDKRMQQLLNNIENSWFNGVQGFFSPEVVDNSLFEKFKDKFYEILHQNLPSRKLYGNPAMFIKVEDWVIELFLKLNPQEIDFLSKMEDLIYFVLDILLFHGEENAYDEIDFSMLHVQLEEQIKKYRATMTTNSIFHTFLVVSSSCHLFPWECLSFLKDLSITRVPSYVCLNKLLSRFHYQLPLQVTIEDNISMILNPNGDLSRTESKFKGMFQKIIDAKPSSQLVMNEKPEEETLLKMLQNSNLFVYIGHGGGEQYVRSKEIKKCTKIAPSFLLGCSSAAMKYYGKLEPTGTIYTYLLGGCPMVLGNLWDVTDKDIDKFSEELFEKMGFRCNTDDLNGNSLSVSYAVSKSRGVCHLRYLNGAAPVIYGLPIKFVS

What was measured:
Assay in all cases: co-IP; anti-FLAG-M2 immunoprecipitation of Esp1-3FLAG (wild type and alanine mutants) from yeast grown at 25°C and arrested with nocodazole; APC lysis buffer (50 mM Hepes-KOH pH 7.8, 700 mM NaCl, 0.25% NP-40); immunoprecipitates blotted with anti-Esp1 and anti-Pds1
[1] = target: esp1-2A-3FLAG (budding yeast) (UniProt Q03018)
[2] = target: esp1-3A-3FLAG (budding yeast) (UniProt Q03018)
[3] = target: esp1-1A-3FLAG (budding yeast) (UniProt Q03018)
[4] = target: esp1-3A+1A-3FLAG (budding yeast) (UniProt Q03018)
[5] = target: esp1-2A+3A+1A-3FLAG (budding yeast) (UniProt Q03018)
[6] = target: esp1-2A+3A-3FLAG (budding yeast) (UniProt Q03018)
[7] = target: Esp1-3FLAG (wild type) (budding yeast) (UniProt Q03018)
[8] = target: esp1-2A+1A-3FLAG (budding yeast) (UniProt Q03018)

Measured: binding

B1: Pds1 (Securin) (protein, UniProt P40316 1-373)
chain: MMPANEDKENNIVYTGNESSGINFPQTPAHLLKRSHSNILKPPVRLDQLKRDANSNNGNTLKYIQGGKEVSPTKRLHTHAQQQGRLPLAAKDNNRSKSFIFPETSNQSKDADLPQLQNTLSIRKNDQLRKLSQISRSRSRANHNDLLSNSRKLQKYGSVLGYNALPKMKSLVLKDLADSGKNEESSDDDEGNEDSESKLGKKLQSALLKQDSSDGENELNGGLGLFNEQGGLQQLIKNSTKNEQKTKNDKSDKTDDYDIEIAPQRQEPLPYVPEGYSPFQQDDIEKLKTFNSPYKLDLEDEDDTPDKVDLLPLEQIDEEGEKDETECITRNQEEGAALPLLSKNFKEVAAVPTMELVYSEEGLDPEELEDLVT
binds: all assays above
